Article doi:10.1101/2023.09.27.559872

Molecular target: T1, FLAG-BirA*-IBTK (UniProt Q9P2D0)
T1 sequence: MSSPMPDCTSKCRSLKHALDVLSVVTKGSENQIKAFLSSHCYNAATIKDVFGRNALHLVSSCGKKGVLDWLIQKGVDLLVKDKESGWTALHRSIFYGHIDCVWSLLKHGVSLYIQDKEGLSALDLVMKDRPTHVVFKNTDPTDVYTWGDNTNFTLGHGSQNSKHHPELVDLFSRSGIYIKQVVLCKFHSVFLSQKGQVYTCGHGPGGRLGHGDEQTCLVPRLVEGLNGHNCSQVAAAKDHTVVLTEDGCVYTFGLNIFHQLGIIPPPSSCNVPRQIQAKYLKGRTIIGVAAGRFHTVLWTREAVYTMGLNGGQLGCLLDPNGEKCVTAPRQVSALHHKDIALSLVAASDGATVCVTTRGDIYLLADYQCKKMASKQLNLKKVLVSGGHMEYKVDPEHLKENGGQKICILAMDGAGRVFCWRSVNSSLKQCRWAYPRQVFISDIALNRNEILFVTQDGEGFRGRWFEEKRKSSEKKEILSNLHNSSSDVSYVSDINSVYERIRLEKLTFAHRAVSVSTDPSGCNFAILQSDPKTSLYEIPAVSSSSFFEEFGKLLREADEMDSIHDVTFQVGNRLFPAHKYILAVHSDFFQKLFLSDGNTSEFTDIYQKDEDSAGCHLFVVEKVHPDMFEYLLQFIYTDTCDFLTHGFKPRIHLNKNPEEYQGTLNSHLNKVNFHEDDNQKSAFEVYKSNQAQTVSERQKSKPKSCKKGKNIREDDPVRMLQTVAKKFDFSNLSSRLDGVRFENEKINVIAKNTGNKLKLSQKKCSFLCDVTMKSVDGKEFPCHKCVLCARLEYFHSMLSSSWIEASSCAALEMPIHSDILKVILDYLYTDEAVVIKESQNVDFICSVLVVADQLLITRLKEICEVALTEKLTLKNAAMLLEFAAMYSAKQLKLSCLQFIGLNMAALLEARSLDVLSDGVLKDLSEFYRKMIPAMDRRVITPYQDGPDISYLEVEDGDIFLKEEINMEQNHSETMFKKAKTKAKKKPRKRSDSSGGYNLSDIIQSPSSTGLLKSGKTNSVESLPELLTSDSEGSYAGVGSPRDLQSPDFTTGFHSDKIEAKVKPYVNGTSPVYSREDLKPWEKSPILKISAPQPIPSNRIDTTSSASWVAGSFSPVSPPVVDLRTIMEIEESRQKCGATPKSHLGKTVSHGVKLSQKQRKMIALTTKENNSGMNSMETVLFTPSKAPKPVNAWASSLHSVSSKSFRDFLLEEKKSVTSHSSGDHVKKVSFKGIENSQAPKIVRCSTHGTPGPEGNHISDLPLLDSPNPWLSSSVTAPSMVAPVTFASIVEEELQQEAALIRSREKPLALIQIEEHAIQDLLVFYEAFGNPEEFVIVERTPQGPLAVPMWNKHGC
Assay: co-IP

## eIF4G, endogenous (human (endogenous in Flp-In T-REx 293))
  binding: no binding

Results are given in words; binding and its absence hold for the method and conditions named. In cells and extracts the contact can be indirect. Where a sequence is shown, tags or fusion partners need not be part of it.
